Laboratory results: paper PMC11727051
No constants are given. Whether binding was seen depends on the method and setting. Binding seen in cells or lysates may run through a third protein. Some entries that bind do so weakly or less than the wild type.

Chains of the proteins cited; added tags and fusions are not shown.
UniProt P18272: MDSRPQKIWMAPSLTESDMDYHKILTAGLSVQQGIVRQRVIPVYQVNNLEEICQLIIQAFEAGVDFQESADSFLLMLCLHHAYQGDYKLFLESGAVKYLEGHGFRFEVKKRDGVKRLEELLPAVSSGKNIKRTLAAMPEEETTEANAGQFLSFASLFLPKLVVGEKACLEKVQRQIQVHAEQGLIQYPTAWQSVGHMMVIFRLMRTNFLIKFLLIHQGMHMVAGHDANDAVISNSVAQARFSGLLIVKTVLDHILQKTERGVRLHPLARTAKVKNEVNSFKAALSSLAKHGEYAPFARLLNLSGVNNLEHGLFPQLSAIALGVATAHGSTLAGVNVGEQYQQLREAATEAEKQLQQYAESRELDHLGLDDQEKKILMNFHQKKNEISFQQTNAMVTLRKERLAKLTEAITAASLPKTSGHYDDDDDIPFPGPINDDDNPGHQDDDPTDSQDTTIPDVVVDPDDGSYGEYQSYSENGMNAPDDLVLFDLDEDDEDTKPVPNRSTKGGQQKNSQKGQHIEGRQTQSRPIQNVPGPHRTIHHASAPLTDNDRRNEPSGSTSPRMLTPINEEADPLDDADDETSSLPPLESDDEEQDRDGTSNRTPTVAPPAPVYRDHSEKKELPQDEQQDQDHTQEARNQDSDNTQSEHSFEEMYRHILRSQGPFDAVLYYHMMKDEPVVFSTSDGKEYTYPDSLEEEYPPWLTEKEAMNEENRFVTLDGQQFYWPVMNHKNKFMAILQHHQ
UniProt Q05323: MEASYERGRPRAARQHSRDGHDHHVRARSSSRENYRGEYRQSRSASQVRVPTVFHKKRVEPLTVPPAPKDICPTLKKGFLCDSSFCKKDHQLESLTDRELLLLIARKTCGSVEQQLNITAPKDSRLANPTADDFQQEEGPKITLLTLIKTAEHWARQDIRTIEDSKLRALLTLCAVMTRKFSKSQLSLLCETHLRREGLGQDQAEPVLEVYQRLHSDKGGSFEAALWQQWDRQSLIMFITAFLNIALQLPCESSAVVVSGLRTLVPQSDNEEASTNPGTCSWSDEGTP
UniProt Q15172: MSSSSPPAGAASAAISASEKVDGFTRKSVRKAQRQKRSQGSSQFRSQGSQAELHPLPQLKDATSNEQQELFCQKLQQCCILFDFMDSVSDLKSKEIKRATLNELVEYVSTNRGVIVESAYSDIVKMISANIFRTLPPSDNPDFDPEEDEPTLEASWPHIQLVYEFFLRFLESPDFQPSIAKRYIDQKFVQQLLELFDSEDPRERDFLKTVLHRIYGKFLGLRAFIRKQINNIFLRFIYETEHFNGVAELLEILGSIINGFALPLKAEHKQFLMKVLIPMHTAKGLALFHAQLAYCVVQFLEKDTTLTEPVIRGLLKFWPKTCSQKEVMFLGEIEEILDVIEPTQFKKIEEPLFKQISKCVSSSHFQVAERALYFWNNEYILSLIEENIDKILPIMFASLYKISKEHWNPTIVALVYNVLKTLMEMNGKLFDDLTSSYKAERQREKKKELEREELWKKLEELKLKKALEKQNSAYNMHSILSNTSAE

Target: Ebola virus nucleoprotein, wild type, flag-tagged (NPwt) (Ebola virus (EBOV)) (UniProt P18272)
Test: co-IP

Row | Substance | binding
1 | Ebola virus VP30 (from UniProt Q05323 1-288) | binds
2 | PP2A regulatory subunit B56α, myc-tagged (PP2A-B56α-myc) (from UniProt Q15172 1-486) | binds
